Measurements as given in publication PMC9861623, “New Ferulic Acid and Amino Acid Derivatives with Increased Cosmeceutical and Pharmaceutical Potential” (Pharmaceutics, 2022).
Values joined by “and” are separate entries in the source; they are usually repeats but may differ in a detail not shown here. Equal entries are not always repeated.

Experiment: Total polyphenols content (Folin–Ciocalteu) of acceptor fluid after 24 h permeation
Set-up: species or system pig
Settings: after 24 h penetration

Row | SMILES | Total Polyphenol in the acceptor fluid (emulsion) | Total Polyphenol in the acceptor fluid (ethanol solution) | Total Polyphenol in the acceptor fluid (hydrogel)
1 | COc1cc(/C=C/C(=O)O)ccc1O [Ferulic acid] | 0.047 ± 0.006 a mmol GA dm^−3 | 0.097 ± 0.002 a mmol GA dm^−3 | 0.059 ± 0.003 a mmol GA dm^−3
2 | CCCOC(=O)CN.COc1cc(/C=C/C(=O)O)ccc1O [GPr[FA], glycine propyl ester ferulate] | 0.051 ± 0.001 ab mmol GA dm^−3 | 0.115 ± 0.001 b mmol GA dm^−3 | 0.064 ± 0.001 b mmol GA dm^−3
3 | CCCOC(=O)[C@@H](N)CC(C)C.COc1cc(/C=C/C(=O)O)ccc1O [LPr[FA], L-leucine propyl ester ferulate] | 0.045 ± 0.004 a mmol GA dm^−3 | 0.125 ± 0.002 mmol GA dm^−3 and 0.122 ± 0.002 c mmol GA dm^−3 | 0.057 ± 0.002 a mmol GA dm^−3
4 | CCCOC(=O)[C@@H]1CCCN1.COc1cc(/C=C/C(=O)O)ccc1O [PPr[FA], L-proline propyl ester ferulate] | 0.061 ± 0.002 mmol GA dm^−3 and 0.061 ± 0.002 b mmol GA dm^−3 | 0.122 ± 0.002 mmol GA dm^−3 and 0.125 ± 0.001 c mmol GA dm^−3 | 0.082 ± 0.001 mmol GA dm^−3 and 0.082 ± 0.001 c mmol GA dm^−3
